Laboratory results reported in article PMC6085464.

Sequences of proteins named here, by UniProt entry; tags and fusion partners are left off. A change or cut given only in a name is not applied to a line headed by its entry.
UniProt O95388: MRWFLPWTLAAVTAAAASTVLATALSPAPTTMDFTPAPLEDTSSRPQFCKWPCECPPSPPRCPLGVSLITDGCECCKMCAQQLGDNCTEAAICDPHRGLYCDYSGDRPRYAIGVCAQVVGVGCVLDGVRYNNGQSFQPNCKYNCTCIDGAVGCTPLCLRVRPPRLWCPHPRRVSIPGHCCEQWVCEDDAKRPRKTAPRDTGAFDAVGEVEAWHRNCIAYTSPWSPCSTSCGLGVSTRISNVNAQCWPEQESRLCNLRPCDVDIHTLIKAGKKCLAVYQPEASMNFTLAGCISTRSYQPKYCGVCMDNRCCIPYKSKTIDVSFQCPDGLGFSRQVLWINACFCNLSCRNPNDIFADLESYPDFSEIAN

Biological target: polyhistidine tagged WISP1 (His6-WISP1) (not stated (human or mouse cDNA cloned)) (UniProt O95388)
Assay: pull-down; His6-WISP1 immobilised on Ni-NTA magnetic agarose beads, incubated with GST-Siah-1; extensive washing, beads boiled in SDS sample buffer, immunoblot with anti-GST and anti-WISP1 antibodies; n = 3; both purified

B1: GST-Siah-1 fusion protein (full-length, wild-type Siah-1) (enzyme, UniProt Q8IUQ4-1 1-282)
chain: MSRQTATALPTGTSKCPPSQRVPALTGTTASNNDLASLFECPVCFDYVLPPILQCQSGHLVCSNCRPKLTCCPTCRGPLGSIRNLAMEKVANSVLFPCKYASSGCEITLPHTEKADHEELCEFRPYSCPCPGASCKWQGSLDAVMPHLMHQHKSITTLQGEDIVFLATDINLPGAVDWVMMQSCFGFHFMLVLEKQEKYDGHQQFFAIVQLIGTRKQAENFAYRLELNGHRRRLTWEATPRSIHEGIATAIMNSDCLVFDTSIAQLFAENGNLGINVTISMC
binding: binds

No constants are given. Whether binding was seen depends on the method and setting. Binding can be weak; no strength is given. Sequences can lack the tags named with a protein.
